Data published in the supplement of paper PMC10849652.
This is one part of the list.

Chains of the proteins cited; added tags and fusions are not shown. Lines headed by an entry give the natural chain unless they say otherwise; changes in a name come on top.
UniProt P35325: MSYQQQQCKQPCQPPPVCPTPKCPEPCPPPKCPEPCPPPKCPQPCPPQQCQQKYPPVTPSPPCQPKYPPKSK
UniProt Q9BYN0: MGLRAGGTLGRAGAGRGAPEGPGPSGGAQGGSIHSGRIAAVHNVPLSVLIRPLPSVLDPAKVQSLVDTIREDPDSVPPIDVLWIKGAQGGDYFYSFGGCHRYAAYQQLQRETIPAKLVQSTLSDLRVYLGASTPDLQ
UniProt Q11206: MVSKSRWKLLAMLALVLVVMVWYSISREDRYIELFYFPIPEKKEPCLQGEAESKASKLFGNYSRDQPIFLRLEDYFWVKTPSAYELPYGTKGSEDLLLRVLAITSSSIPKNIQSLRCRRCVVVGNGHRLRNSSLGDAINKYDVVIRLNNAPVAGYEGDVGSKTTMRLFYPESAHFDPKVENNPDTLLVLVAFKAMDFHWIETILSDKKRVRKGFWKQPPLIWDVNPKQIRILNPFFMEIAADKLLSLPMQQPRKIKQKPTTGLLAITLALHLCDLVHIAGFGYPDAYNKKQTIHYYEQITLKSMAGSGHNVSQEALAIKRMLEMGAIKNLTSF
UniProt Q7Z699: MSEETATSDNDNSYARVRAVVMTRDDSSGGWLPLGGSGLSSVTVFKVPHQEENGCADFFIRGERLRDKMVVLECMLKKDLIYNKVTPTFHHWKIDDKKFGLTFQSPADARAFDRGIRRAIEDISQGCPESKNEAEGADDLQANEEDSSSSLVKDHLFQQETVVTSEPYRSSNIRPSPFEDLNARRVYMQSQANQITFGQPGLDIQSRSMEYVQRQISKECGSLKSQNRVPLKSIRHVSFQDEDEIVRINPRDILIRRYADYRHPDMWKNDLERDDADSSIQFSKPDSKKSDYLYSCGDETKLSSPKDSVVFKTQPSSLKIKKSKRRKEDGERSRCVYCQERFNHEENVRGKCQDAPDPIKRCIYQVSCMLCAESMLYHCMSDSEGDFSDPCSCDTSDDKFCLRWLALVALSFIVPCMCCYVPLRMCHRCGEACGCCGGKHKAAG
UniProt Q8NBT2: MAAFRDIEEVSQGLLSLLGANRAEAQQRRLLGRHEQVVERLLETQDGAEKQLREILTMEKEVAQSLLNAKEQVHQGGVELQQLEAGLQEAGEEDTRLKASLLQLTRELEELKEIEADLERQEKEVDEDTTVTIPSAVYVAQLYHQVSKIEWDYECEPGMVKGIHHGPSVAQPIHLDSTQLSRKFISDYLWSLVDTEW
UniProt O95793: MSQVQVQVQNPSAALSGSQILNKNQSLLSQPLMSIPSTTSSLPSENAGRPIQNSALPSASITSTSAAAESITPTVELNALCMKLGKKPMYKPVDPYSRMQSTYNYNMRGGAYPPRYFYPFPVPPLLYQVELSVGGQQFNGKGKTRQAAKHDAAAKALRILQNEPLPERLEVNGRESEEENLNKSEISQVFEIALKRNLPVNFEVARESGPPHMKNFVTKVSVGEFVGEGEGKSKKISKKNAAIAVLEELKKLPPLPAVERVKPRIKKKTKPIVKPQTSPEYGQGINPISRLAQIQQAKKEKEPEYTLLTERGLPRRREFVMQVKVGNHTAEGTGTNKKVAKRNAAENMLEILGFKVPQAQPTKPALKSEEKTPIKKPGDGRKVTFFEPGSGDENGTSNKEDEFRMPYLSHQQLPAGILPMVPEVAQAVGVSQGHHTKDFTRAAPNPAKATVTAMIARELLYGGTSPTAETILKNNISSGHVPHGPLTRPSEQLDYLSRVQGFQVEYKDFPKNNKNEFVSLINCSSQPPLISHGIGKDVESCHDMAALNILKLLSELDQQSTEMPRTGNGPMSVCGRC
UniProt Q9BWG4: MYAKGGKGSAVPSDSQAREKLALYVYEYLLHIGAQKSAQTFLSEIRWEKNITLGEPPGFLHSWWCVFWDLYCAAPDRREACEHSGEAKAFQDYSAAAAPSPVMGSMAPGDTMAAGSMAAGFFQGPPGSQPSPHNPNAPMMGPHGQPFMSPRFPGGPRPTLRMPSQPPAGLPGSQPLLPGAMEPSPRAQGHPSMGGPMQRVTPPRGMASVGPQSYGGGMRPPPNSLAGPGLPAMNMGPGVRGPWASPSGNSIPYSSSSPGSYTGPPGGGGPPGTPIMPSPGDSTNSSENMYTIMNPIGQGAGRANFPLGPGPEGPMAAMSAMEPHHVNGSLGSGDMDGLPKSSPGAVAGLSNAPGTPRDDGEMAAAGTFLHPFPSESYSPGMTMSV
UniProt P61009: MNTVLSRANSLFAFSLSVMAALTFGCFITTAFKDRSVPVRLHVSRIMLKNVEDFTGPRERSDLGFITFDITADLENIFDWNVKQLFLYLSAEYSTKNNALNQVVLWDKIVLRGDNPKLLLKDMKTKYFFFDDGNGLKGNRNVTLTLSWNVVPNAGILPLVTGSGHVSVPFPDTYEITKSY
UniProt Q9NUQ6: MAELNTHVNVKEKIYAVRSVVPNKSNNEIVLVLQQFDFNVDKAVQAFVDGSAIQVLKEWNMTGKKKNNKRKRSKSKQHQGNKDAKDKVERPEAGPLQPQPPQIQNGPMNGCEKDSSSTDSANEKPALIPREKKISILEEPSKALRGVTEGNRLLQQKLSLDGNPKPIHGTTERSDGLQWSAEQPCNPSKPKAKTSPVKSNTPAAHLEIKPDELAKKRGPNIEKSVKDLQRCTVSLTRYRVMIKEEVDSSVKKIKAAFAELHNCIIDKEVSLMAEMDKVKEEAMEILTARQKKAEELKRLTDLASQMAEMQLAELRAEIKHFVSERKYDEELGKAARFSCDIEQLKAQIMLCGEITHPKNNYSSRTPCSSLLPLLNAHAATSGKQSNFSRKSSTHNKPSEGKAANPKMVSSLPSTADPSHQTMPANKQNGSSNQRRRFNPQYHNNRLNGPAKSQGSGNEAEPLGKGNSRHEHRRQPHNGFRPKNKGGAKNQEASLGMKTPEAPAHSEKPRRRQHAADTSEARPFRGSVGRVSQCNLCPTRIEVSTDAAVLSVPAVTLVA
UniProt Q56A73: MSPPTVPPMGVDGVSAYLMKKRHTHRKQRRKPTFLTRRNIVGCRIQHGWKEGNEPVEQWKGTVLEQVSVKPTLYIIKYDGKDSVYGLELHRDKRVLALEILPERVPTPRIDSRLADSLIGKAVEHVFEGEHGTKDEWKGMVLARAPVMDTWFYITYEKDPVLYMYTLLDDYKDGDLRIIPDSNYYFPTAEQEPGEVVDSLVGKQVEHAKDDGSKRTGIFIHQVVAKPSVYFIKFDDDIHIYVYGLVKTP
UniProt Q9Y2D8: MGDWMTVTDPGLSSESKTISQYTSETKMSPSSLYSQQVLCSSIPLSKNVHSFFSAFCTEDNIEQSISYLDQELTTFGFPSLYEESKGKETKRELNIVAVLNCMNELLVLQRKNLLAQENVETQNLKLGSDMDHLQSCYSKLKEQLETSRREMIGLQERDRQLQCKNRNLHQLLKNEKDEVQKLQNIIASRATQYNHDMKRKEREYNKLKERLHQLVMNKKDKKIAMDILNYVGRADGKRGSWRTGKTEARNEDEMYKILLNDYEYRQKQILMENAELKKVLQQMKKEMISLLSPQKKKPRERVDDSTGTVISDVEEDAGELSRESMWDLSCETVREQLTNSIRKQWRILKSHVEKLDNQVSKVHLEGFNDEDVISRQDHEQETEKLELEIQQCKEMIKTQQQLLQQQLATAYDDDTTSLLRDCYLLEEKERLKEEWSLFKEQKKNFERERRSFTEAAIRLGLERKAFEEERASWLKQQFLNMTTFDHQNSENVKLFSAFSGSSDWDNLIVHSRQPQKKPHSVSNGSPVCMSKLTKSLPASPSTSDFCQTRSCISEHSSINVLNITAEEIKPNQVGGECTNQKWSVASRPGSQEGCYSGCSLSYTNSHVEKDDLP
UniProt P81877: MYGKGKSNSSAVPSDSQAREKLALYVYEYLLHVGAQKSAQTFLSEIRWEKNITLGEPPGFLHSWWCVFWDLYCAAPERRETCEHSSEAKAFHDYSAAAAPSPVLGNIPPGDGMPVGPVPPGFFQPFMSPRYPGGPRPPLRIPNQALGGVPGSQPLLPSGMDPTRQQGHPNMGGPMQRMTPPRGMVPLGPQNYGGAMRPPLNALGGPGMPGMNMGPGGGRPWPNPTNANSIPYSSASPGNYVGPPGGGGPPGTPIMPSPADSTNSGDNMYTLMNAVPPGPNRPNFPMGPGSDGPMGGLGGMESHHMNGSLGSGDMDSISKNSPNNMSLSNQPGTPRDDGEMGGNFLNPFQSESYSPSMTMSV
UniProt Q01082, whole entry, looked up: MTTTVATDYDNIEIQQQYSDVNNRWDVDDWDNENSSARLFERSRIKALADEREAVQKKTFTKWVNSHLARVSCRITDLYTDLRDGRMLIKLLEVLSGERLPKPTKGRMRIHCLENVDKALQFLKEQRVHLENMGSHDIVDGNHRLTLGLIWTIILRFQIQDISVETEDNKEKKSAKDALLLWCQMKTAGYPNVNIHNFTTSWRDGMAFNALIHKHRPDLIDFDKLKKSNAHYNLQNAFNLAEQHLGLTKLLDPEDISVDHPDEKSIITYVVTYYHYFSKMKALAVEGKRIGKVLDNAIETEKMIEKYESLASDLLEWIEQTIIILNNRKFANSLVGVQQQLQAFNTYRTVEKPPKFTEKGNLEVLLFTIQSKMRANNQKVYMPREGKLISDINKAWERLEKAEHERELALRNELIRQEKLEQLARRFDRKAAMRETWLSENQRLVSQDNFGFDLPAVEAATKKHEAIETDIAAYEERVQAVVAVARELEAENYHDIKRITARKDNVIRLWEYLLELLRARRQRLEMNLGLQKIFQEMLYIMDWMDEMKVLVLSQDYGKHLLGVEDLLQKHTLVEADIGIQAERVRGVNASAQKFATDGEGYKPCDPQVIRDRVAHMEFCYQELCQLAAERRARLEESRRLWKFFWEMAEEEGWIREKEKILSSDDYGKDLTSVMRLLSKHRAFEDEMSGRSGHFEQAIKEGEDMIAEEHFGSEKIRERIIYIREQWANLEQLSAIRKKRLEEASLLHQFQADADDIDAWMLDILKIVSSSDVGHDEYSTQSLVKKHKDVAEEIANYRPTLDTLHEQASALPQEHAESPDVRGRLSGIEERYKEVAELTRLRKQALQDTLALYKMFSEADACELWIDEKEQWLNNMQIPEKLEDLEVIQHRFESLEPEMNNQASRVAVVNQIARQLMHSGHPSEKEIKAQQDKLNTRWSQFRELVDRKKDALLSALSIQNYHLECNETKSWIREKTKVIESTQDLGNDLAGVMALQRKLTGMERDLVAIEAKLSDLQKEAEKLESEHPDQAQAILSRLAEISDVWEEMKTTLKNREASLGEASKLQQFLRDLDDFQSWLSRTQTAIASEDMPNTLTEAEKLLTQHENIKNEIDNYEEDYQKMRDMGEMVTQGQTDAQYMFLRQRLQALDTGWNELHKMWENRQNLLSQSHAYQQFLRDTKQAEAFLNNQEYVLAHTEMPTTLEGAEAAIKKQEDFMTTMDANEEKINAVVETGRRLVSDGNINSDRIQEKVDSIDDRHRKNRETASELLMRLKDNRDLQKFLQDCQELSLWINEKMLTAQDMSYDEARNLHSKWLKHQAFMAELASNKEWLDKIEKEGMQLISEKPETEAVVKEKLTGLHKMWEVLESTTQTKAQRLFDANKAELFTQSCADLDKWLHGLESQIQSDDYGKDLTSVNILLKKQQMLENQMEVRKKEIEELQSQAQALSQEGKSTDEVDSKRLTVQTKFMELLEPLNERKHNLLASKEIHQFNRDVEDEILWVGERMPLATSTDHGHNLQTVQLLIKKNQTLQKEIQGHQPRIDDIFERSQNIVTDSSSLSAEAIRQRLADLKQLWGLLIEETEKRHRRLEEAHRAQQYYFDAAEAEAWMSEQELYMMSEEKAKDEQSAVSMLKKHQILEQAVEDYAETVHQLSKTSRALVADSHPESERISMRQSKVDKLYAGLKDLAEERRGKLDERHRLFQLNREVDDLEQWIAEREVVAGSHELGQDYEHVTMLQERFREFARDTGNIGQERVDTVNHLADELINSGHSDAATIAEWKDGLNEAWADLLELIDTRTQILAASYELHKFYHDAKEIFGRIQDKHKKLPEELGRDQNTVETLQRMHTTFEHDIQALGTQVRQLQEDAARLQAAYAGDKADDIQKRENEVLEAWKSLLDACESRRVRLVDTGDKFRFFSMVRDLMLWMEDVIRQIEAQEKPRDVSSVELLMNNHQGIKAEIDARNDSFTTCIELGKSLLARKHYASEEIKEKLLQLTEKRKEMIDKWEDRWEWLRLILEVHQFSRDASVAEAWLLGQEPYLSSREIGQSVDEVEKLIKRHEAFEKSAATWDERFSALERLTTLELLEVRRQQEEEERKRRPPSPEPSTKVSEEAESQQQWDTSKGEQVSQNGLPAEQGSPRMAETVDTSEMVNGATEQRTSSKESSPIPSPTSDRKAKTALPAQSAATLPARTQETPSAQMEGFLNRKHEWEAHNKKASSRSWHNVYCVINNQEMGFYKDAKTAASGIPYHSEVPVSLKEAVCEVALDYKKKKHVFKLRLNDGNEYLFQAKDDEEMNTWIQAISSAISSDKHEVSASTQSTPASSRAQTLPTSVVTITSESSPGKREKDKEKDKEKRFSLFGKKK

Key:
Assay in all cases: log2 fold change, soluble protein after heating vs DMSO (PISA); higher = thermal stabilisation; K562 lysate, 10 uM; active = over 0.2 and 3.5 SD of the protein, either way, in both replicates (recomputed)
[1] = compound: C=CC(=O)N1CCC[C@@H](n2nc(-c3ccc(Oc4ccccc4)cc3)c3c(N)ncnc32)C1 [ibrutinib]
Outline: (§1)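 Log-two fold change in thermal stability relative to solvent controls is reported from duplicates. For each sample, crude K562 extract from dounce-homogenised pellets in PBS pH 7.4 with 1 mM MgCl2, at 1 mg/mL protein, was treated with 10 μM compound for 30 min. Aliquots heated for 3 min across 48°C-58°C were pooled, brought to 0.5% NP-40 at 4°C and cleared at 21,000xg for 90 min. The supernatant was quantified by TMTpro 16plex LC-MS/MS with channel sums equalised.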

[2] = compound: CC(=O)c1cnc2ccc(-c3cc(Cl)c(O)c(Cl)c3)nc2c1N[C@H]1CC[C@H](CN(C)C)CC1
Outline: as §1

[3] = compound: CC(C)(C)Cn1c(N)nc2ccc(-c3[nH]c(C(C)(C)C)nc3-c3ccc(F)cc3)nc21 [ralimetinib]
Outline: as §1

[4] = compound: CC(C)(O)CC(=O)NCCn1ccc2ncnc(Nc3ccc(Oc4cccc(C(F)(F)F)c4)c(Cl)c3)c21
Outline: as §1

[5] = compound: CC(C)C1=C2N=C(C=C(N2N=C1)NCC3=CC=CC=C3)NCCCCCCN
Outline: as §1

[6] = compound: CC1=C(C=C(C=C1)NC(=O)C2=CC(=CC=C2)C(C)(C)C#N)NC3=CC4=C(C=C3)N=CN(C4=O)C
Outline: as §1

[7] = compound: CC1=C(C=C(C=C1)NC(=O)C2=CC(=CC=C2)N(C)C)NC(=O)C3=CC=C(C=C3)O
Outline: as §1

[8] = compound: CC1=CC=C(C=C1)SC2=C3C=C(SC3=CN=C2)C(=O)N
Outline: as §1

[9] = compound: CCCS(=O)(=O)Nc1ccc(F)c(C(=O)c2c[nH]c3ncc(Cl)cc23)c1F
Outline: as §1

[10] = compound: CCN(CCCOc1ccc2c(Nc3cc(CC(=O)Nc4cccc(F)c4)[nH]n3)ncnc2c1)CCOP(=O)(O)O [barasertib]
Outline: as §1

[11] = compound: CC[C@@H]1C(=O)N(C)c2cnc(Nc3ccc(C(=O)NC4CCN(C)CC4)cc3OC)nc2N1C1CCCC1
Outline: as §1

[12] = compound: CC[C@@H]1C(=O)N(C)c2cnc(Nc3ccc(C(=O)N[C@H]4CC[C@H](N5CCN(CC6CC6)CC5)CC4)cc3OC)nc2N1C(C)C [volasertib]
Outline: as §1

[13] = compound: CCn1c(C(=O)N(C2CC2)C2CC2)cc2c3c(ncn3C)c(Nc3cc(C)n(C)n3)nc21
Outline: as §1

[14] = compound: CCn1cc(-c2ccnc3[nH]c(-c4cccc(CN(C)C)c4)cc23)c(-c2ccc(NC(=O)N(C)C)cc2)n1
Outline: as §1

[15] = compound: CN1CCC(CNc2ccc3ncc(-c4cccc(OC(F)(F)F)c4)n3n2)CC1
Outline: as §1

[16] = compound: CN1CCN(c2nc(C3=C(c4c[nH]c5ccccc45)C(=O)NC3=O)c3ccccc3n2)CC1 [sotrastaurin]
Outline: as §1

[17] = compound: CC1=C(C(CC(=O)N1)C2=CC=C(C=C2)C(F)(F)F)C(=O)NC3=C(C=C4C(=C3)C=NN4)F
Outline: as §1

[18] = compound: CC1=C(C2=C(C=C1)C(=O)C3=CC=CC=C3N2CCCN)C
Outline: as §1

[19] = compound: CCCS(=O)(=O)Nc1ccc(F)c(C(=O)c2c[nH]c3ncc(-c4ccc(Cl)cc4)cc23)c1F [vemurafenib]
Outline: as §1

[20] = compound: CN1CCN(CCOc2cc(OC3CCOCC3)c3c(Nc4c(Cl)ccc5c4OCO5)ncnc3c2)CC1 [saracatinib]
Outline: as §1

Measured: log2 fold change

SPRR2B (UniProt P35325)
inactive: [1] -0.01 | [2] -0.278 | [3] -0.038 | [4] -0.02 | [5] 0.167 | [6] 0.007 | [7] -0.026 | [8] -0.037 | [9] 0.004 | [10] 0.095 | [11] 0.184 | [12] -0.025 | [13] -0.011 | [14] 0.07 | [15] -0.048 | [16] 0.01

SRXN1 (UniProt Q9BYN0)
inactive: [1] 0.053 | [2] -0.032 | [3] 0.067 | [4] -0.065 | [5] 0.03 | [17] -0.074 | [18] -0.015 | [6] 0.08 | [7] -0.006 | [8] -0.032 | [19] 0.132 | [9] -0.047 | [10] 0.023 | [11] 0.065 | [12] 0.041 | [13] 0.034 | [14] -0.041 | [15] -0.073 | [20] 0.043 | [16] -0.012

ST3GAL4 isoform 4 (UniProt Q11206)
inactive: [1] 0.344 | [3] 0.053 | [4] -0.049 | [5] -0.1 | [17] 0.133 | [18] 0.017 | [6] -0.015 | [7] 0.046 | [19] -0.051 | [10] 0.1 | [11] 0.308 | [13] -0.162 | [14] -0.034 | [15] -0.152 | [20] 0.138 | [16] 0.046

SPRED1 (UniProt Q7Z699)
inactive: [1] 0.038 | [2] -0.026 | [3] -0.002 | [4] 0.017 | [5] 0.078 | [18] -0.088 | [7] -0.104 | [8] -0.024 | [9] -0.065 | [10] 0.293 | [11] 0.053 | [12] -0.001 | [13] -0.132 | [14] -0.003 | [15] -0.009 | [20] -0.055

SPC24 (UniProt Q8NBT2)
inactive: [1] 0.054 | [2] -0.002 | [3] 0.001 | [4] -0.008 | [5] 0 | [17] -0.001 | [18] 0.01 | [6] 0.007 | [7] -0.008 | [8] -0.021 | [19] 0.006 | [9] 0.024 | [10] 0.027 | [11] -0.017 | [12] -0.008 | [13] -0.008 | [14] -0.074 | [15] -0.027 | [20] 0.015 | [16] -0.021

STAU1 isoform 3 (UniProt O95793)
inactive: [1] -0.094 | [5] 0.028 | [17] 0.012 | [6] -0.064 | [10] 0.014 | [14] -0.166 | [15] -0.016 | [16] 0.092

SSBP4 (UniProt Q9BWG4)
inactive: [1] 0.08 | [2] 0.006 | [17] 0.001 | [6] 0.006 | [8] -0.041 | [19] 0.174 | [9] -0.047 | [10] 0.125 | [11] 0.051 | [12] 0.005 | [14] -0.002 | [15] -0.043 | [16] 0.023

SPCS3 (UniProt P61009)
inactive: [1] -0.02 | [2] 0.016 | [3] -0.014 | [4] 0.03 | [5] -0.036 | [17] 0.043 | [18] 0.008 | [6] -0.078 | [7] 0.005 | [8] 0.038 | [19] -0.001 | [9] -0.046 | [10] -0.006 | [11] -0.026 | [12] 0.014 | [13] 0.09 | [14] 0.024 | [15] -0.076 | [20] -0.012 | [16] 0.001

SPTAN1 (UniProt Q13813)
inactive: [1] 0.034 | [2] 0.005 | [3] 0.017 | [4] -0.007 | [5] -0.029 | [17] -0.013 | [18] 0.001 | [6] 0 | [7] 0.011 | [8] -0.012 | [19] -0.008 | [9] 0.01 | [10] 0.011 | [11] 0.033 | [12] 0.005 | [13] 0.004 | [14] -0.05 | [15] 0.016 | [20] 0.025 | [16] 0.004

SPTY2D1 (UniProt Q68D10)
inactive: [1] -0.013 | [3] -0.037 | [4] 0.055 | [5] 0.056 | [17] -0.094 | [18] -0.024 | [6] -0.04 | [7] -0.006 | [10] 0.14 | [13] 0.123 | [14] -0.02 | [15] 0.02 | [20] -0.028 | [16] -0.091

SPATS2L isoform 2 (UniProt Q9NUQ6)
inactive: [1] 0 | [2] -0.139 | [3] 0.019 | [4] -0.039 | [5] 0.127 | [17] -0.002 | [6] 0.026 | [7] 0.127 | [8] -0.06 | [19] 0.036 | [9] -0.097 | [10] 0.036 | [11] 0.062 | [12] 0.064 | [13] -0.008 | [14] 0.255 | [15] -0.192 | [16] 0.043

SPIN4 (UniProt Q56A73)
inactive: [19] 0.146 | [14] -0.183 | [15] 0.032

SSX2IP (UniProt Q9Y2D8)
inactive: [3] -0.028 | [4] -0.071 | [17] 0.068 | [7] 0.048 | [19] 0.034 | [11] -0.002 | [13] 0.119 | [14] 0.131 | [15] 0.178

SSBP2 (UniProt P81877)
inactive: [3] -0.081 | [4] -0.275 | [5] 0.047 | [18] -0.095 | [6] 0.128 | [7] 0.045 | [19] 0 | [11] 0.141 | [13] -0.343 | [14] 0.122 | [15] -0.204 | [20] -0.017 | [16] 0.143

STARD9 (UniProt Q9P2P6)
inactive: [2] 0.033 | [3] 0.11 | [4] -0.144 | [5] 0.05 | [17] 0.031 | [18] 0.014 | [6] 0.051 | [7] 0.015 | [8] -0.054 | [19] 0.067 | [9] 0.056 | [11] -0.094 | [12] -0.063 | [13] 0.151 | [14] 0.012 | [15] -0.075 | [20] 0.038 | [16] 0.012

SPTAN1 isoform 3 (UniProt Q13813)
inactive: [1] -0.005 | [6] 0.138 | [19] -0.062 | [10] -0.026 | [11] 0.072 | [16] 0

Quoted from above (five entries):
SPTY2D1 (UniProt Q68D10)
inactive: [1] -0.013 | [3] -0.037 | [4] 0.055 | [5] 0.056 | [17] -0.094 | [18] -0.024 | [6] -0.04 | [7] -0.006 | [10] 0.14 | [13] 0.123 | [14] -0.02 | [15] 0.02 | [20] -0.028 | [16] -0.091

SPATS2L isoform 2 (UniProt Q9NUQ6)
inactive: [1] 0 | [2] -0.139 | [3] 0.019 | [4] -0.039 | [5] 0.127 | [17] -0.002 | [6] 0.026 | [7] 0.127 | [8] -0.06 | [19] 0.036 | [9] -0.097 | [10] 0.036 | [11] 0.062 | [12] 0.064 | [13] -0.008 | [14] 0.255 | [15] -0.192 | [16] 0.043

SPIN4 (UniProt Q56A73)
inactive: [19] 0.146 | [14] -0.183 | [15] 0.032

SSX2IP (UniProt Q9Y2D8)
inactive: [3] -0.028 | [4] -0.071 | [17] 0.068 | [7] 0.048 | [19] 0.034 | [11] -0.002 | [13] 0.119 | [14] 0.131 | [15] 0.178

SSBP2 (UniProt P81877)
inactive: [3] -0.081 | [4] -0.275 | [5] 0.047 | [18] -0.095 | [6] 0.128 | [7] 0.045 | [19] 0 | [11] 0.141 | [13] -0.343 | [14] 0.122 | [15] -0.204 | [20] -0.017 | [16] 0.143

(list continues)

SRC isoform 2 (UniProt P12931)
inactive: [2] -0.061 | [3] -0.035 | [4] 0.075 | [5] 0.052 | [18] 0.07 | [7] 0.042 | [8] 0 | [9] 0.166 | [10] 0.133 | [11] 0.045 | [12] -0.039 | [13] -0.024 | [14] 0.184 | [15] -0.121

SPTBN1 isoform 3 (UniProt Q01082)
inactive: [2] -0.248 | [3] 0.056 | [4] -0.023 | [5] 0.13 | [17] 0.021 | [18] -0.101 | [6] 0.024 | [7] 0.103 | [8] -0.095 | [9] -0.073 | [11] 0.133 | [12] -0.046 | [13] -0.035 | [20] -0.017 | [16] -0.196
